From patent publication US8299262B2, “Pyridylmethyl-sulfonamide compounds” (BASF SE, priority 2007, dated 2012)
Some entries share one result that the patent states for a list of compounds. At least one compound was matched to its structure with a doubt left.

Columns and labels:
Puccinia recondita = assay: Greenhouse test, protective action against Puccinia recondita on wheat (Use Example 16); assay type: in vivo, Puccinia recondita on wheat cultivar Kanzler; conditions: 250 ppm, protective spray on wheat; untreated plants 90% infected
Septoria tritici = assay: Greenhouse test, protective action against Septoria tritici on wheat (Use Example 20); assay type: in vivo, Septoria tritici on wheat cultivar Kanzler; conditions: 250 ppm, protective spray on wheat, assessed after 21 days; untreated plants 90% infected
Phytophthora infestans = assay type: in vivo, Phytophthora infestans on tomato plants; conditions: 250 ppm, protective spray on tomato, assessed after 6 days; untreated plants 90% infected
Phakopsora pachyrhizi = assay: Greenhouse test, protective action against Phakopsora pachyrhizi on soybean (Use Example 19); assay type: in vivo; conditions: 250 ppm, protective spray on soybean; untreated plants 90% infected

Row | SMILES | infection (Puccinia recondita) | infection (Septoria tritici) | infection (% diseased leaf area) (Phytophthora infestans) | infection (Phakopsora pachyrhizi)
1 | Cc1nccc(CNS(=O)(=O)c2ccc(Oc3ncc(C(F)(F)F)cc3Cl)c(F)c2)c1C [Example 91] | less than or equal to 15% | less than or equal to 15% | – | –
2 | COc1cc(CNS(=O)(=O)c2ccc(Oc3ccc(OC(F)F)cn3)cc2)ccn1 [Example 101] | less than or equal to 15% | less than or equal to 15% | – | –
3 | COc1cc(CNS(=O)(=O)c2ccc(Oc3ncc(C(F)(F)F)s3)cc2)ccn1 [Example 112] | – | – | less than or equal to 15% | less than or equal to 15%
4 | COc1cc(CNS(=O)(=O)c2cc(C)c(Oc3ncc(C(F)(F)F)cc3Cl)c(C)c2)ccn1 [Example 129] | – | less than or equal to 15% | less than or equal to 15% | –
5 | COc1cc(CNS(=O)(=O)c2ccc(Oc3nc(C(F)(F)F)nc(C)c3C)cc2)ccn1 [Example 169] | – | less than or equal to 15% | less than or equal to 15% | –
6 | COc1cc(CNS(=O)(=O)c2ccc(Oc3ccnc(C(F)(F)F)n3)cc2)ccn1 [Example 173] | – | less than or equal to 15% | less than or equal to 15% | –
7 | Cc1cc(C(F)(F)F)cc(Oc2ccc(S(=O)(=O)NCc3ccncc3)cc2)n1 [Example 176] | – | less than or equal to 15% | less than or equal to 15% | –
8 | COc1cc(CNS(=O)(=O)c2ccc(Oc3cc(C(F)(F)F)cc(C)n3)cc2)ccn1 [Example 177] | – | less than or equal to 15% | less than or equal to 15% | –
9 | Cc1cc(S(=O)(=O)NCc2ccncc2)ccc1Oc1ncc(C(F)(F)F)cc1Cl [Example 180] | less than or equal to 15% | less than or equal to 15% | – | –
10 | COc1cc(CNS(=O)(=O)c2ccc(Oc3ncc(C(F)(F)F)cc3Cl)c(C)c2)ccn1 [Example 181] | less than or equal to 15% | less than or equal to 15% | – | –
11 | COc1cnccc1CNS(=O)(=O)c1ccc(Oc2ncc(C(F)(F)F)cc2Cl)c(C)c1 [Example 182] | less than or equal to 15% | less than or equal to 15% | – | –
12 | Cc1cc(S(=O)(=O)NCc2ccnc(C)c2C)ccc1Oc1ncc(C(F)(F)F)cc1Cl [Example 183] | – | less than or equal to 15% | less than or equal to 15% | –
13 | COc1cc(CNS(=O)(=O)c2ccc(Oc3ncc(C(F)(F)F)cc3Cl)cc2C)ccn1 [Example 185] | – | less than or equal to 15% | – | –
14 | COc1cnccc1CNS(=O)(=O)c1ccc(Oc2ncc(C(F)(F)F)cc2Cl)cc1C [Example 186] | less than or equal to 15% | less than or equal to 15% | – | –
15 | Cc1cc(Oc2ncc(C(F)(F)F)cc2Cl)ccc1S(=O)(=O)NCc1ccnc(C)c1C [Example 187] | less than or equal to 15% | less than or equal to 15% | – | –
16 | Cc1cc(S(=O)(=O)NCc2ccncc2)ccc1Oc1ncccc1C(F)(F)F [Example 188] | – | less than or equal to 15% | less than or equal to 15% | –
17 | Cc1cc(Oc2ncccc2C(F)(F)F)ccc1S(=O)(=O)NCc1ccncc1 [Example 192] | – | less than or equal to 15% | less than or equal to 15% | –
18 | COc1cc(CNS(=O)(=O)c2ccc(Oc3ncccc3C(F)(F)F)cc2C)ccn1 [Example 193] | less than or equal to 15% | less than or equal to 15% | – | –
19 | COc1cnccc1CNS(=O)(=O)c1ccc(Oc2ncccc2C(F)(F)F)cc1C [Example 194] | less than or equal to 15% | less than or equal to 15% | – | –
20 | COc1cc(CNS(=O)(=O)c2ccc(Oc3ncc(C(F)(F)F)c(C)c3Cl)cc2)ccn1 [Example 205] | less than or equal to 15% | less than or equal to 15% | – | –
21 | COc1cnccc1CNS(=O)(=O)c1ccc(Oc2ncc(C(F)(F)F)c(C)c2Cl)cc1 [Example 206] | less than or equal to 15% | less than or equal to 15% | – | –
22 | Cc1nccc(CNS(=O)(=O)c2ccc(Oc3ncc(C(F)(F)F)c(C)c3Cl)cc2)c1C [Example 207] | less than or equal to 15% | less than or equal to 15% | – | –
23 | CCOC(=O)c1ccc(Oc2ccc(S(=O)(=O)NCc3ccnc(OC)c3)cc2)nc1 [Example 243] | – | – | – | less than or equal to 15%
24 | Cc1cc(Oc2ccc(S(=O)(=O)NCc3ccnc(C)c3C)cc2)ccn1 [Example 256] | – | – | – | less than or equal to 15%
25 | CCc1c(CNS(=O)(=O)c2ccc(Oc3ncc(C(F)(F)F)cc3Cl)cc2)ccnc1C [Example 260] | less than or equal to 15% | less than or equal to 15% | – | –
26 | COc1cc(CNS(=O)(=O)c2ccc(Oc3c(Cl)c(C(F)(F)F)nn3C)cc2)ccn1 [Example 271] | less than or equal to 15% | less than or equal to 15% | – | –
27 | COc1cc(CNS(=O)(=O)c2ccc(Oc3ccc(Cl)cn3)cc2C)ccn1 [Example 279] | – | less than or equal to 15% | less than or equal to 15% | –

Row | SMILES | infection (Puccinia recondita) | infection (Septoria tritici) | infection (% diseased leaf area) (Phytophthora infestans) | infection (Phakopsora pachyrhizi)
28 | Cc1cc(Oc2ccc(Cl)cn2)ccc1S(=O)(=O)NCc1ccnc(C)c1C [Example 280] | – | less than or equal to 15% | less than or equal to 15% | –
29 | COc1cc(CNS(=O)(=O)c2ccc(Oc3ncc(Cl)cc3Cl)c(C)c2)ccn1 [Example 281] | – | less than or equal to 15% | less than or equal to 15% | –
30 | Cc1cc(S(=O)(=O)NCc2ccnc(C)c2C)ccc1Oc1ncc(Cl)cc1Cl [Example 282] | – | less than or equal to 15% | less than or equal to 15% | –
31 | COc1cc(CNS(=O)(=O)c2ccc(Oc3ncc(Cl)cc3Cl)cc2C)ccn1 [Example 283] | – | less than or equal to 15% | less than or equal to 15% | –
32 | Cc1cc(Oc2ncc(Cl)cc2Cl)ccc1S(=O)(=O)NCc1ccnc(C)c1C [Example 284] | – | less than or equal to 15% | less than or equal to 15% | –
33 | COc1cc(CNS(=O)(=O)c2ccc(OCc3cncc(C(F)(F)F)c3)cc2)ccn1 [Example 285] | – | less than or equal to 15% | less than or equal to 15% | –
34 | Cc1nccc(CNS(=O)(=O)c2ccc(OCc3cncc(C(F)(F)F)c3)cc2)c1C [Example 286] | – | less than or equal to 15% | less than or equal to 15% | –
35 | Cc1nccc(CNS(=O)(=O)c2ccc(OCc3ccc(Cl)nc3)cc2)c1C [Example 288] | – | – | less than or equal to 15% | less than or equal to 15%
36 | COc1cc(CNS(=O)(=O)c2ccc(Oc3ccc(C(F)(F)F)cn3)cc2F)ccn1 [Example 290] | – | – | – | less than or equal to 15%
37 | COc1cc(CNS(=O)(=O)c2ccc(Oc3ccc(C(F)(F)F)cn3)c(F)c2)ccn1 [Example 291] | – | less than or equal to 15% | less than or equal to 15% | –
38 | Cc1nccc(CNS(=O)(=O)c2ccc(Oc3ncc(OC(F)F)cc3Cl)cc2)c1C [Example 292] | – | less than or equal to 15% | less than or equal to 15% | –
39 | COc1cc(CNS(=O)(=O)c2ccc(Oc3ccncc3Br)cc2)ccn1 [Example 296] | – | – | less than or equal to 15% | less than or equal to 15%
40 | Cc1nccc(CNS(=O)(=O)c2ccc(Oc3ccncc3Br)cc2)c1C [Example 297] | – | – | less than or equal to 15% | less than or equal to 15%
41 | COc1cc(CNS(=O)(=O)c2ccc(Oc3ccncc3Cl)cc2)ccn1 [Example 298] | – | less than or equal to 15% | less than or equal to 15% | –
42 | COc1cc(CNS(=O)(=O)c2ccc(Sc3ncc(C(F)(F)F)cc3Cl)cc2)ccn1 [Example 299] | – | – | less than or equal to 15% | less than or equal to 15%
43 | Cc1nccc(CNS(=O)(=O)c2ccc(Sc3ncc(C(F)(F)F)cc3Cl)cc2)c1C [Example 300] | – | – | – | less than or equal to 15%
44 | COC(=O)c1ccc(Oc2ccc(S(=O)(=O)NCc3ccnc(OC)c3)cc2)nc1 [Example 301] | – | – | – | less than or equal to 15%
45 | COC(=O)c1ccc(Oc2ccc(S(=O)(=O)NCc3ccnc(C)c3C)cc2)nc1 [Example 302] | – | – | – | less than or equal to 15%
46 | CCOC(=O)c1cnc(Oc2ccc(S(=O)(=O)NCc3ccnc(OC)c3)cc2)c(Cl)c1 [Example 303] | – | – | – | less than or equal to 15%
47 | CCOC(=O)c1cnc(Oc2ccc(S(=O)(=O)NCc3ccnc(C)c3C)cc2)c(Cl)c1 [Example 304] | – | – | – | less than or equal to 15%
48 | Cc1cc(S(=O)(=O)NCc2ccnc(C)c2C)ccc1Oc1ncc(Cl)cc1F [Example 306] | – | – | less than or equal to 15% | less than or equal to 15%
49 | COc1cc(CNS(=O)(=O)c2ccc(Oc3cccnc3)cc2)ccn1 [Example 307] | – | – | less than or equal to 15% | less than or equal to 15%
50 | Cc1nccc(CNS(=O)(=O)c2ccc(Oc3cccnc3)cc2)c1C [Example 308] | – | – | – | less than or equal to 15%
51 | COc1cc(CNS(=O)(=O)c2ccc(OCc3cc(C)nn3C)cc2)ccn1 [Example 311] | – | – | – | less than or equal to 15%
52 | Cc1nccc(CNS(=O)(=O)c2ccc(Oc3ccncc3Cl)cc2)c1C [Example 315] | – | – | – | less than or equal to 15%
53 | O=S(=O)(NCc1ccncc1)c1ccc(Sc2ccc(C(F)(F)F)cn2)cc1 [Example 318] | – | – | – | less than or equal to 15%
